# Measured values from the supplement of paper PMC8728848.
# Some of the results follow.
# B1: SspB A3vp1 (Streptococcus gordonii), Q54186 (protein)
# chain: MTNEADYQAKLAAYQTELARVQKANADAKATYEKAVEDNKAKNAAIKAENEEIKQRNAVAKTDYEAKLAKYEADLAKYKKEFAAYTAALAEAESKKKQDGYLSEPRSQSLNFKSEPNAIRTIDSSVHQYGQQELDALVKSWGISPTNPDRKKSRAYSYFNAINSNNTYAKLVLEKDKPVDVTYTGLKNSSFNGKKISKVVYTYTLKETGFNDGTKMTMFASSDPTVTAWYNDYFTSTNINVKVKFYDEEGQLMNLTGGLVNFSSLNRGNGSGAIDKDAIESVRNFNGRYIPISGSSIKIHENNSAYADSSNAEKSLGARWNTSEWDTTSSPNNWYGAIVGEITQSEISFNMASSKSGNIWFAFNSNINAIGVPTKPVAPTAPTQPMYETEKPLEPAPVAPSYENEPTPPVKTPDQPEPSKPAAALEHHHHHH
# Key:
# Test in all cases: glycan array binding signal (z-score within array); higher = stronger binding
# Conditions in all cases: glycan notation: IUPAC condensed, linker removed
# [1] = target: Fuc(a1-2)[Gal(a1-3)]Gal(b1-4)GlcNAc(b1-2)Man(a1-3)[Fuc(a1-2)[Gal(a1-3)]Gal(b1-4)GlcNAc(b1-2)Man(a1-6)]Man(b1-4)GlcNAc(b1-4)GlcNAc
# Summary of the method: (§1)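 Glycan array data came from 3228 arrays in the Consortium for Functional Glycomics database, and only arrays with an available protein sequence were kept. Glycan names were put into IUPAC-condensed notation, and columns mapping to the same glycan were averaged. The binding signal is a within-array Z-score, averaged across arrays of one protein sequence run at different concentrations or buffers and across linkers. A negative Z-score can be read as non-binding.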
# [2] = target: Fuc(a1-2)[Gal(a1-3)]Gal(b1-4)GlcNAc(b1-2)Man(a1-3)[Fuc(a1-2)[Gal(a1-3)]Gal(b1-4)GlcNAc(b1-2)Man(a1-6)]Man(b1-4)GlcNAc(b1-4)[Fuc(a1-6)]GlcNAc
# Summary of the method: as §1
# [3] = target: Fuc(a1-2)[Gal(a1-3)]Gal(b1-4)GlcNAc(b1-3)GalNAc
# Summary of the method: as §1
# [4] = target: Fuc(a1-2)[Gal(a1-3)]Gal(b1-4)GlcNAc(b1-6)GalNAc
# Summary of the method: as §1
# [5] = target: Fuc(a1-2)[Gal(a1-3)]Gal(b1-4)[Fuc(a1-3)]Glc
# Summary of the method: as §1
# [6] = target: Fuc(a1-2)[Gal(a1-3)]Gal(b1-4)[Fuc(a1-3)]GlcNAc
# Summary of the method: as §1
# [7] = target: Fuc(a1-2)[Gal(a1-3)]Gal(b1-4)[Fuc(a1-3)]GlcNAc(b1-3)GalNAc
# Summary of the method: as §1
# [8] = target: Fuc(a1-2)[Gal(a1-4)]Gal(b1-4)GlcNAc
# Summary of the method: as §1
# [9] = target: Fuc(a1-2)[GalNAc(a1-3)]Gal
# Summary of the method: as §1
# [10] = target: Fuc(a1-2)[GalNAc(a1-3)]Gal(b1-3)GalNAc(a1-3)[Fuc(a1-2)]Gal(b1-4)GlcNAc
# Summary of the method: as §1
# [11] = target: Fuc(a1-2)[GalNAc(a1-3)]Gal(b1-3)GalNAc(b1-3)Gal(a1-4)Gal(b1-4)Glc
# Summary of the method: as §1
# [12] = target: Fuc(a1-2)[GalNAc(a1-3)]Gal(b1-3)GlcNAc
# Summary of the method: as §1
# [13] = target: Fuc(a1-2)[GalNAc(a1-3)]Gal(b1-3)GlcNAc(b1-2)Man(a1-3)[Fuc(a1-2)[GalNAc(a1-3)]Gal(b1-3)GlcNAc(b1-2)Man(a1-6)]Man(b1-4)GlcNAc(b1-4)GlcNAc
# Summary of the method: as §1
# [14] = target: Fuc(a1-2)[GalNAc(a1-3)]Gal(b1-3)GlcNAc(b1-2)Man(a1-3)[Fuc(a1-2)[GalNAc(a1-3)]Gal(b1-3)GlcNAc(b1-2)Man(a1-6)]Man(b1-4)GlcNAc(b1-4)[Fuc(a1-6)]GlcNAc
# Summary of the method: as §1
# [15] = target: Fuc(a1-2)[GalNAc(a1-3)]Gal(b1-3)GlcNAc(b1-3)GalNAc
# Summary of the method: as §1
# [16] = target: Fuc(a1-2)[GalNAc(a1-3)]Gal(b1-3)GlcNAc(b1-6)GalNAc
# Summary of the method: as §1
# [17] = target: Fuc(a1-2)[GalNAc(a1-3)]Gal(b1-4)Glc
# Summary of the method: as §1
# [18] = target: Fuc(a1-2)[GalNAc(a1-3)]Gal(b1-4)GlcNAc
# Summary of the method: as §1
# [19] = target: Fuc(a1-2)[GalNAc(a1-3)]Gal(b1-4)GlcNAc(b1-2)Man
# Summary of the method: as §1
# [20] = target: Fuc(a1-2)[GalNAc(a1-3)]Gal(b1-4)GlcNAc(b1-2)Man(a1-3)[Fuc(a1-2)[GalNAc(a1-3)]Gal(b1-4)GlcNAc(b1-2)Man(a1-6)]Man(b1-4)GlcNAc(b1-4)GlcNAc
# Summary of the method: as §1
# [21] = target: Fuc(a1-2)[GalNAc(a1-3)]Gal(b1-4)GlcNAc(b1-2)Man(a1-3)[Fuc(a1-2)[GalNAc(a1-3)]Gal(b1-4)GlcNAc(b1-2)Man(a1-6)]Man(b1-4)GlcNAc(b1-4)[Fuc(a1-6)]GlcNAc
# Summary of the method: as §1
# [22] = target: Fuc(a1-2)[GalNAc(a1-3)]Gal(b1-4)GlcNAc(b1-3)Gal(b1-4)GlcNAc
# Summary of the method: as §1
# [23] = target: Fuc(a1-2)[GalNAc(a1-3)]Gal(b1-4)GlcNAc(b1-3)Gal(b1-4)GlcNAc(b1-3)Gal(b1-4)GlcNAc
# Summary of the method: as §1
# [24] = target: Fuc(a1-2)[GalNAc(a1-3)]Gal(b1-4)GlcNAc(b1-3)GalNAc
# Summary of the method: as §1
# [25] = target: Fuc(a1-2)[GalNAc(a1-3)]Gal(b1-4)GlcNAc(b1-3)[Fuc(a1-2)[GalNAc(a1-3)]Gal(b1-4)GlcNAc(b1-6)]GalNAc
# Summary of the method: as §1
# [26] = target: Fuc(a1-2)[GalNAc(a1-3)]Gal(b1-4)GlcNAc(b1-6)GalNAc
# Summary of the method: as §1
# [27] = target: Fuc(a1-2)[GalNAc(a1-3)]Gal(b1-4)[Fuc(a1-3)]GlcNAc
# Summary of the method: as §1
# [28] = target: Fuc(a1-2)[GalNAc(a1-3)]Gal(b1-4)[Fuc(a1-3)]GlcNAc(b1-3)GalNAc
# Summary of the method: as §1
# [29] = target: Fuc(a1-2)[GalNAc(a1-4)]Gal(b1-4)GlcNAc
# Summary of the method: as §1
# [30] = target: Fuc(a1-2)[GalNAc(b1-3)]Gal
# Summary of the method: as §1
# Fuc(a1-3)GlcNAc = target: Fuc(a1-3)GlcNAc
# Summary of the method: as §1
# [31] = target: Fuc(a1-3)[Gal(b1-4)]Glc6S
# Summary of the method: as §1
# [32] = target: Fuc(a1-3)[Gal(b1-4)]GlcNAc
# Summary of the method: as §1
# [33] = target: Fuc(a1-3)[Gal(b1-4)]GlcNAc(b1-2)Man
# Summary of the method: as §1
# [34] = target: Fuc(a1-3)[Gal(b1-4)]GlcNAc(b1-2)Man(a1-3)[Fuc(a1-3)[Gal(b1-4)]GlcNAc(b1-2)Man(a1-6)]Man(b1-4)GlcNAc(b1-4)GlcNAc
# Summary of the method: as §1
# [35] = target: Fuc(a1-3)[Gal(b1-4)]GlcNAc(b1-2)Man(a1-3)[Fuc(a1-3)[Gal(b1-4)]GlcNAc(b1-2)Man(a1-6)]Man(b1-4)GlcNAc(b1-4)[Fuc(a1-6)]GlcNAc
# Summary of the method: as §1
# [36] = target: Fuc(a1-3)[Gal(b1-4)]GlcNAc(b1-3)Gal(b1-3)[Fuc(a1-4)]GlcNAc
# Summary of the method: as §1
binder,measurement,setting,value
B1,glycan array binding signal (z-score),[1],0.492
same,glycan array binding signal (z-score),[2],-0.236
same,glycan array binding signal (z-score),[3],0.304
same,glycan array binding signal (z-score),[4],-0.435
same,glycan array binding signal (z-score),[5],-1.28
same,glycan array binding signal (z-score),[6],0.179
same,glycan array binding signal (z-score),[7],2.42
same,glycan array binding signal (z-score),[8],0.025
same,glycan array binding signal (z-score),[9],-0.591
same,glycan array binding signal (z-score),[10],0.239
same,glycan array binding signal (z-score),[11],-0.45
same,glycan array binding signal (z-score),[12],-0.775
same,glycan array binding signal (z-score),[13],0.151
same,glycan array binding signal (z-score),[14],-0.126
same,glycan array binding signal (z-score),[15],-0.377
same,glycan array binding signal (z-score),[16],2.01
same,glycan array binding signal (z-score),[17],-0.516
same,glycan array binding signal (z-score),[18],-0.651
same,glycan array binding signal (z-score),[19],-0.427
same,glycan array binding signal (z-score),[20],-0.186
same,glycan array binding signal (z-score),[21],0.127
same,glycan array binding signal (z-score),[22],-0.217
same,glycan array binding signal (z-score),[23],-0.093
same,glycan array binding signal (z-score),[24],-0.018
same,glycan array binding signal (z-score),[25],-0.489
same,glycan array binding signal (z-score),[26],-0.387
same,glycan array binding signal (z-score),[27],1.22
same,glycan array binding signal (z-score),[28],3.5
same,glycan array binding signal (z-score),[29],0.22
same,glycan array binding signal (z-score),[30],-1.11
same,glycan array binding signal (z-score),Fuc(a1-3)GlcNAc,-0.516
same,glycan array binding signal (z-score),[31],0.542
same,glycan array binding signal (z-score),[32],-0.996
same,glycan array binding signal (z-score),[33],-0.276
same,glycan array binding signal (z-score),[34],0.062
same,glycan array binding signal (z-score),[35],0.653
same,glycan array binding signal (z-score),[36],-0.515

# A run of entries from the list above, as a working copy:
binder,measurement,setting,value
B1,glycan array binding signal (z-score),[27],1.22
same,glycan array binding signal (z-score),[28],3.5
same,glycan array binding signal (z-score),[29],0.22
